The values that follow come from article PMC5686067.

Results are given in words; binding and its absence hold for the method and conditions named.

This test addresses sNlpI-ΔN (E. coli) (UniProt P0AFB1). Briefly: AUC; sedimentation velocity, absorbance optics, 20 mM Tris-HCl pH 8.0, 100 mM NaCl, 2 mM DTT, 20 °C, c(s) model in Sedfit; both purified.

B1: sNlpI-ΔN (domain or fragment, UniProt P0AFB1 37-294)
chain: TLQQEVILARMEQILASRALTDDERAQLLYERGVLYDSLGLRALARNDFSQALAIRPDMPEVFNYLGIYLTQAGNFDAAYEAFDSVLELDPTYNYAHLNRGIALYYGGRDKLAQDDLLAFYQDDPNDPFRSLWLYLAEQKLDEKQAKEVLKQHFEKSDKEQWGWNIVEFYLGNISEQTLMERLKADATDNTSLAEHLSETNFYLGKYYLSLGDLDSATALFKLAVANNVHNFVEHRYALLELSLLGQDQDDLAESDQQ
For the molecule B1, the binding entry was “no binding”.
